# Reference: the supplement of paper PMC8728848
# The other results are listed elsewhere or left out.
# Key:
# Assay in all cases: glycan array binding signal (z-score within array); higher = stronger binding
# Details in all cases: glycan notation: IUPAC condensed, linker removed
# [1] = target: GlcNAc(b1-4)GlcNAc(b1-4)GlcNAc(b1-4)GlcNAc(b1-4)GlcNAc
# Summary of the method: (§1)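 Glycan array data came from 3228 arrays in the Consortium for Functional Glycomics database, and only arrays with an available protein sequence were kept. Glycan names were put into IUPAC-condensed notation, and columns mapping to the same glycan were averaged. The binding signal is a within-array Z-score, averaged across arrays of one protein sequence run at different concentrations or buffers and across linkers. A negative Z-score can be read as non-binding.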
# [2] = target: GlcNAc(b1-4)GlcNAc(b1-4)GlcNAc(b1-4)GlcNAc(b1-4)GlcNAc(b1-4)GlcNAc
# Summary of the method: as §1
# [3] = target: GlcNAc(b1-4)[GlcNAc(b1-6)]GalNAc
# Summary of the method: as §1
# [4] = target: GlcNAc(b1-6)Gal(b1-4)GlcNAc
# Summary of the method: as §1
# GlcNAc(b1-6)GalNAc = target: GlcNAc(b1-6)GalNAc
# Summary of the method: as §1
# [5] = target: GlcNAc6S(b1-3)Gal(b1-4)GlcNAc
# Summary of the method: as §1
# Kdn(a2-3)Gal(b1-3)GalNAc = target: Kdn(a2-3)Gal(b1-3)GalNAc
# Summary of the method: as §1
# Kdn(a2-3)Gal(b1-3)GlcNAc = target: Kdn(a2-3)Gal(b1-3)GlcNAc
# Summary of the method: as §1
# Kdn(a2-3)Gal(b1-4)Glc = target: Kdn(a2-3)Gal(b1-4)Glc
# Summary of the method: as §1
# Kdn(a2-3)Gal(b1-4)GlcNAc = target: Kdn(a2-3)Gal(b1-4)GlcNAc
# Summary of the method: as §1
# [6] = target: Kdn(a2-3)Gal(b1-4)[Fuc(a1-3)]GlcNAc
# Summary of the method: as §1
# Kdn(a2-6)Gal(b1-4)GlcNAc = target: Kdn(a2-6)Gal(b1-4)GlcNAc
# Summary of the method: as §1
# [7] = target: Man(a1-2)Man(a1-2)Man(a1-3)Man
# Summary of the method: as §1
# [8] = target: Man(a1-2)Man(a1-2)Man(a1-6)[Man(a1-3)]Man
# Summary of the method: as §1
# Man(a1-2)Man(a1-3)Man = target: Man(a1-2)Man(a1-3)Man
# Summary of the method: as §1
# [9] = target: Man(a1-2)Man(a1-3)[Man(a1-2)Man(a1-6)]Man
# Summary of the method: as §1
# [10] = target: Man(a1-2)Man(a1-3)[Man(a1-2)Man(a1-6)]Man(a1-6)[Man(a1-2)Man(a1-2)Man(a1-3)]Man
# Summary of the method: as §1
# [11] = target: Man(a1-2)Man(a1-3)[Man(a1-2)Man(a1-6)]Man(a1-6)[Man(a1-2)Man(a1-2)Man(a1-3)]Man(b1-4)GlcNAc(b1-4)GlcNAc
# Summary of the method: as §1
# [12] = target: Man(a1-2)Man(a1-3)[Man(a1-6)]Man(a1-6)[Man(a1-2)Man(a1-3)]Man(b1-4)GlcNAc(b1-4)GlcNAc
# Summary of the method: as §1
# [13] = target: Man(a1-2)Man(a1-6)[Man(a1-3)]Man(a1-6)[Man(a1-2)Man(a1-2)Man(a1-3)]Man
# Summary of the method: as §1
# [14] = target: Man(a1-2)Man(a1-6)[Man(a1-3)]Man(a1-6)[Man(a1-2)Man(a1-2)Man(a1-3)]Man(b1-4)GlcNAc(b1-4)GlcNAc
# Summary of the method: as §1
# Man(a1-3)[Man(a1-6)]Man = target: Man(a1-3)[Man(a1-6)]Man
# Summary of the method: as §1
# [15] = target: Man(a1-3)[Man(a1-6)]Man(a1-6)[Man(a1-2)Man(a1-3)]Man(b1-4)GlcNAc(b1-4)GlcNAc
# Summary of the method: as §1
# [16] = target: Man(a1-3)[Man(a1-6)]Man(a1-6)[Man(a1-3)]Man
# Summary of the method: as §1
# [17] = target: Man(a1-3)[Man(a1-6)]Man(a1-6)[Man(a1-3)]Man(b1-4)GlcNAc(b1-4)GlcNAc
# Summary of the method: as §1
# [18] = target: Man(a1-3)[Man(a1-6)]Man(b1-4)GlcNAc(b1-4)GlcNAc
# Summary of the method: as §1
# [19] = target: Man(a1-3)[Man(a1-6)]Man(b1-4)GlcNAc(b1-4)[Fuc(a1-6)]GlcNAc
# Summary of the method: as §1
# Man(a1-6)Man = target: Man(a1-6)Man
# Summary of the method: as §1
# Man(b1-4)GlcNAc = target: Man(b1-4)GlcNAc
# Summary of the method: as §1
# MurNAc(b1-4)GlcNAc = target: MurNAc(b1-4)GlcNAc
# Summary of the method: as §1
# Neu5Ac(a2-3)Gal = target: Neu5Ac(a2-3)Gal
# Summary of the method: as §1
# [20] = target: Neu5Ac(a2-3)Gal(b1-3)GalNAc
# Summary of the method: as §1
# [21] = target: Neu5Ac(a2-3)Gal(b1-3)GalNAc(b1-3)Gal(a1-4)Gal(b1-4)Glc
# Summary of the method: as §1
# [22] = target: Neu5Ac(a2-3)Gal(b1-3)GalNAc(b1-4)[Neu5Ac(a2-3)]Gal(b1-4)Glc
# Summary of the method: as §1
# [23] = target: Neu5Ac(a2-3)Gal(b1-3)GalNAc(b1-4)[Neu5Ac(a2-8)Neu5Ac(a2-3)]Gal(b1-4)Glc
# Summary of the method: as §1
# [24] = target: Neu5Ac(a2-3)Gal(b1-3)GalNAc6S
# Summary of the method: as §1
# [25] = target: Neu5Ac(a2-3)Gal(b1-3)GlcNAc
# Summary of the method: as §1
binder,measurement,setting,value
"AT5G24760(45) (Arabidopsis thaliana), Q8LEB2 (protein) MSASSSSFEQPQVITCNAAVAWRAGEPLVMEEVEVSPPQPLEIRIKVVCTSLCRSDLSAWESQSLLPRIFGHEAAGIVESIGEGVTEFEKGDHVLAVFTGECGSCRHCISGKSNMCQVLGMERKGLMHSDQKTRFSIKGKPVYHYCAVSSFSEYTVVHSGCAVKVDPLAPLHKICLLSCGVAAGLGAAWNVADVQKGSSVVIFGLGTVGLSVAQGAKLRGAAQILGVDINPAKAEQAKTFGVTDFINSNDLSEPIPQVIKRMTGGGADFSFECVGDTGIATTALQSCSDGWGMTVTLGVPKAKPEVSAHYGLFLSGKSLKGTLFGGWKPKSDLPSLIDKYMNKEIMIDEFITHNLSFDEINKAFVLMREGKCLRCVLHMPK",glycan array binding signal (z-score),[1],0.118
same,glycan array binding signal (z-score),[2],0.72
same,glycan array binding signal (z-score),[3],-0.483
same,glycan array binding signal (z-score),[4],-0.147
same,glycan array binding signal (z-score),GlcNAc(b1-6)GalNAc,0.425
same,glycan array binding signal (z-score),[5],0.418
same,glycan array binding signal (z-score),Kdn(a2-3)Gal(b1-3)GalNAc,-0.157
same,glycan array binding signal (z-score),Kdn(a2-3)Gal(b1-3)GlcNAc,-0.232
same,glycan array binding signal (z-score),Kdn(a2-3)Gal(b1-4)Glc,-0.288
same,glycan array binding signal (z-score),Kdn(a2-3)Gal(b1-4)GlcNAc,0.348
same,glycan array binding signal (z-score),[6],1.43
same,glycan array binding signal (z-score),Kdn(a2-6)Gal(b1-4)GlcNAc,0.038
same,glycan array binding signal (z-score),[7],-0.914
same,glycan array binding signal (z-score),[8],2.01
same,glycan array binding signal (z-score),Man(a1-2)Man(a1-3)Man,0.085
same,glycan array binding signal (z-score),[9],-1.05
same,glycan array binding signal (z-score),[10],-0.963
same,glycan array binding signal (z-score),[11],0.124
same,glycan array binding signal (z-score),[12],-0.404
same,glycan array binding signal (z-score),[13],-0.772
same,glycan array binding signal (z-score),[14],2.16
same,glycan array binding signal (z-score),Man(a1-3)[Man(a1-6)]Man,-0.147
same,glycan array binding signal (z-score),[15],-0.032
same,glycan array binding signal (z-score),[16],0.506
same,glycan array binding signal (z-score),[17],2.45
same,glycan array binding signal (z-score),[18],-0.591
same,glycan array binding signal (z-score),[19],-0.202
same,glycan array binding signal (z-score),Man(a1-6)Man,0.972
same,glycan array binding signal (z-score),Man(b1-4)GlcNAc,-0.703
same,glycan array binding signal (z-score),MurNAc(b1-4)GlcNAc,-0.721
same,glycan array binding signal (z-score),Neu5Ac(a2-3)Gal,-0.061
same,glycan array binding signal (z-score),[20],-0.172
same,glycan array binding signal (z-score),[21],-0.984
same,glycan array binding signal (z-score),[22],-0.768
same,glycan array binding signal (z-score),[23],-0.322
same,glycan array binding signal (z-score),[24],-0.551
same,glycan array binding signal (z-score),[25],-0.399

# 2 records picked at random from those above:
binder,measurement,setting,value
"AT5G24760(45) (Arabidopsis thaliana), Q8LEB2 (protein) MSASSSSFEQPQVITCNAAVAWRAGEPLVMEEVEVSPPQPLEIRIKVVCTSLCRSDLSAWESQSLLPRIFGHEAAGIVESIGEGVTEFEKGDHVLAVFTGECGSCRHCISGKSNMCQVLGMERKGLMHSDQKTRFSIKGKPVYHYCAVSSFSEYTVVHSGCAVKVDPLAPLHKICLLSCGVAAGLGAAWNVADVQKGSSVVIFGLGTVGLSVAQGAKLRGAAQILGVDINPAKAEQAKTFGVTDFINSNDLSEPIPQVIKRMTGGGADFSFECVGDTGIATTALQSCSDGWGMTVTLGVPKAKPEVSAHYGLFLSGKSLKGTLFGGWKPKSDLPSLIDKYMNKEIMIDEFITHNLSFDEINKAFVLMREGKCLRCVLHMPK",glycan array binding signal (z-score),[19],-0.202
same,glycan array binding signal (z-score),[21],-0.984
